# Data taken from the supplement of paper PMC3334620.
# The full ranking holds about 33,000 sequences; the median of “E-score (-0.5 to 0.5)” is about -0.0059, and the highest 2% start at about 0.26. The list shows a part of the results.
# Molecular target: T1, Cin5 (UniProt P40917)
# T1 sequence: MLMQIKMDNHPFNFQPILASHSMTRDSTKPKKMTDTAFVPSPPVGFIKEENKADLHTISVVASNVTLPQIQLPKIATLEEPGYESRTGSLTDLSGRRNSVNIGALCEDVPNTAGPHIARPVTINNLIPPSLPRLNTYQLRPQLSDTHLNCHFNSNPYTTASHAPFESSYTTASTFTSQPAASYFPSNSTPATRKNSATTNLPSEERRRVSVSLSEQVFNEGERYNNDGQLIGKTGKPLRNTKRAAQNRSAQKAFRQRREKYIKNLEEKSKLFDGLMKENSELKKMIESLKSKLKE
# Assay: PBM E-score (8-mer binding enrichment) (E-score (-0.5 to 0.5)); higher = stronger / more preferred TF binding
# Conditions: protein concentration: 100 nM; construct: GST-full length
# Procedure, shortened: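 PURExpress in vitro transcription/translation supplied GST-tagged yeast transcription factors, either full-length or DNA-binding domain. Applied at about 100-200 nM to universal all-10-mer Agilent arrays double-stranded by primer extension, the bound protein was detected with fluorescent anti-GST. E-scores, modified Wilcoxon-Mann-Whitney statistics, were given by the Universal PBM Analysis Suite to ungapped eight-base words pooled with their reverse complements after masliner normalisation.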
row,Sequence,PBM E-score
1,GCCGCATA,0.209
2,CCTGCAGC,-0.0691
3,CCGTTACA,0.178
4,CGCCACAG,-0.0874
5,TTATAGAA,0.0432
6,AGGCCCAA,-0.0434
7,AGCAGTCA,-0.0454
8,CCGAAATA,0.209
9,CCTGTTTC,-0.025
10,ATTGAAAG,0.00608
11,TGTAGGAA,-0.139
12,ACATCCCT,0.0705
13,ATGTCCTA,-0.0294
14,AAATACCG,0.012
15,AAGAGCTG,-0.0813
16,CACGTCCC,-0.197
17,AGGTTGAA,0.0659
18,AACAAGGG,-0.184
19,ATATTTCA,0.108
20,CGCATCAA,0.0722
21,AAAATGGT,0.216
22,AAGATCTG,0.0322
23,CTCCCAAA,0.118
24,AAACAAAC,0.037
25,CATTCCGA,0.255

row,Sequence,PBM E-score
1,CTGATAGC,-0.00917
2,GGCTCATA,0.0114
3,TACGACGA,0.145
4,CAAATCAG,0.122
5,GGGGCCCA,-0.246
6,ACCCCAAA,0.11
7,CCTAAATA,-0.0834
8,AGCACCTC,0.108
9,ACTCAACG,-0.0348
10,ATAGGTGG,-0.0698
11,ACGGCGCT,-0.105
12,ACTTAAGG,-0.0244
13,ATTGACCC,-0.00345
14,GTACGCCA,-0.181
15,CTGACTAC,-0.00132
16,ACTAAACG,0.06
17,GAGAGCTA,-0.0372
18,AACGACGA,0.118
19,ACCGTACA,-0.108
20,GAAGATGA,-0.0258
21,GGAAAGCC,0.111
22,ATGAATGA,0.143
23,CCCATGAG,-0.052
24,GTCCCTTA,0.0799
25,TGGTGCAA,-0.0945

row,Sequence,PBM E-score
1,ATTGGCCA,0.0999
2,GGAGTATA,0.0872
3,CCGGACAA,0.0257
4,AACGCGGC,-0.00899
5,GACCTCCA,-0.0693
6,TCCGGCGA,0.0986
7,GTGATCGA,0.273
8,CGGTCTTC,-0.085
9,TAGCGGCA,-0.087
10,GGGAGGAA,-0.0413
11,AAACCAGC,-0.00246
12,GAAGTGGA,-0.103
13,CGATTCCG,0.0417
14,CTCGTAGA,-0.268
15,AGCTTACA,0.351
16,AAACTATC,0.0759
17,GGCCAATA,0.1
18,ACATCATC,0.344
19,CTGGGTGC,-0.201
20,ACCGGCGA,0.0231
21,ATAAGCAC,0.175
22,CATATAGG,0.0225
23,TACTGACA,0.148
24,CTCTATAA,0.0992
25,ACTGTGAT,0.0172

row,Sequence,PBM E-score
1,CCGAGGTC,-0.109
2,AAGTAAGC,0.178
3,TCTCCTCA,-0.149
4,GGAGTCTA,-0.18
5,ATCCTTAA,-0.102
6,ACCCACGA,-0.0605
7,GCCTAAGA,-0.214
8,GAGTCCGA,0.00774
9,GTGACTAA,0.123
10,GGCGAGTA,0.0638
11,GAGGCTGA,-0.137
12,ATATCTCA,0.277
13,TACGAGTA,0.0988
14,CTCGTCCC,-0.119
15,CTCCAGCC,-0.276
16,ACCTTTCG,-0.0242
17,ATTATTTG,0.206
18,CTTCCCAA,-0.123
19,GTGGGGGA,-0.389
20,GATATAAC,0.115
21,ATCACCCG,0.0127
22,CGATTGGC,-0.0332
23,GTTCTGGA,-0.104
24,AATGGATG,0.125
25,ACAGGTAA,0.143

# Single entries from the list:
# PBM E-score with GTTCTGGA reads -0.104
# PBM E-score with CTTCCCAA reads -0.123
# PBM E-score with GTGACTAA reads 0.123
# PBM E-score with ATCACCCG reads 0.0127
# PBM E-score with CTCCAGCC reads -0.276
# PBM E-score with GAGGCTGA reads -0.137
# PBM E-score with CGATTGGC reads -0.0332

# The list goes on.

row,Sequence,PBM E-score
1,ACACAACA,-0.0184
2,AATGTTTC,0.0706
3,TCAAGGAA,0.049
4,TCCCGAAA,-0.00206
5,AGTGGTAT,0.0695
6,AATCGCCA,0.00791
7,ACAAGTAT,0.221
8,AAGAGTGC,-0.0247
9,AATTTGGT,0.197
10,ATGCTCCG,-0.0609
11,ACCACCCA,0.147
12,AGACTTAC,-0.0833
13,CAAGCGGC,0.00179
14,GACGCGGC,-0.0283
15,CTCTTTAC,-0.0395
16,ACTTGACA,-0.104
17,CGACGTTA,0.158
18,ACTACGGC,-0.125
19,TCACTTAA,0.0953
20,ACCATTAG,-0.00403
21,GTAATACA,0.181
22,ATATTGAC,0.00999
23,AAGCCCCT,-0.0849
24,GTTGTCAA,0.00927
25,GCTATTAA,0.0303

row,Sequence,PBM E-score
1,GGAATACC,-0.0241
2,AGAAAACC,0.0613
3,CCCGGTCA,-0.102
4,GCACATGA,-0.108
5,ATTCTGTC,0.0802
6,ACATAGCT,-0.238
7,GTCTCTGA,-0.16
8,AATGTCAC,0.0888
9,CGCTTTAA,0.0291
10,GAGAGACC,-0.227
11,TACATCTA,0.185
12,ACGTCCGC,0.0917
13,ACTCGAAA,-0.0536
14,ACAACCGT,-0.172
15,ACAACCTA,0.0123
16,ACATGGCC,0.139
17,TTGACCAA,0.0912
18,ATAAACTA,0.14
19,ACGAGTCG,-0.116
20,CGAAGGAG,-0.125
21,CGTAACAA,0.0408
22,GACTTTCA,-0.0684
23,GACAACCC,0.00981
24,ATACACGG,0.0384
25,AGCGGATG,0.00547

row,Sequence,PBM E-score
1,CTGTCCGC,0.0282
2,TGATAGCA,0.16
3,AAATGATA,0.279
4,ATGTAAAT,0.207
5,GCACAAGC,0.0524
6,AGGGGCCC,-0.15
7,CTAATTAG,0.195
8,ATTCAGAA,-0.0671
9,AGAGCTAC,-0.0377
10,CGGCACTC,-0.0609
11,CCGAAGGA,-0.153
12,CACGATCC,-0.0444
13,CTATAGCC,-0.29
14,CGGTGCAC,-0.172
15,ACTATTCA,0.172
16,AAGCGCTT,0.242
17,ATCCGGTG,0.0447
18,CATGGCCC,-0.141
19,CCGTATAC,0.0103
20,CCGAGACA,-0.0446
21,TCCGTTAA,0.112
22,CGGTTCCC,-0.0959
